Patent US20070098788A1, “NON-BENZ[…] COMPOSITIONS” (priority 2005, published 2007)
Values joined by “and” are separate entries in the source; they are usually repeats but may differ in a detail not shown here. Identical values can stand only once. At least one compound was matched to its structure with a doubt left.

Test: Bulk density, tapped density, Carr index, Hausner ratio
Format: physicochemical

CN1CCN(C(=O)O[C@H]2c3nccnc3C(=O)N2c2ccc(Cl)cn2)CC1 [eszopiclone, (+)-(5S)-6-(chloropyridin-2-yl)-7-oxo-6,7-dihydro-5H-pyrrolo[3,4-b]pyrazin-5-yl 4-methyl-piperazine-1-carboxylate]
Apparent Bulk Density (before tapping): 0.56 g/mL and 0.557 g/mL
Carr Index: 22.3
Hausner Ratio: 1.29
Tapped Bulk Density (after tapping): 0.72 g/mL and 0.717 g/mL
